Data source: PubChem BioAssay AID602196 (INSERM, 2012)
In all, the deposit lists about 23,000 reagents; shown is an unselected part. 455 of them (2%) count as active. 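Active includes both protection and sensitisation; some change values fall well beyond the stated -50 to +50 range.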 Unmarked entries are inactive. Reagents against one gene are numbered here. The record does not give: the amount of reagent.

- Aim: 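Genes whose knock-down alters cisplatin killing of lung cancer cells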
- Cells: human A549 lung cancer cells
- Knock-down reagent: siRNA pair against human genes
- Timing: 48 h transfection before cisplatin; time from cisplatin to read-out not stated
- Conditions: cisplatin at a dose killing half of control-siRNA cells; exact dose and duration not given
- Measurement: 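Shift in cisplatin death relative to control siRNA, from -50 (all cells die) to +50 (no cells die); siRNAs harmful on their own scored 0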
- Direction: two-siRNA summed score (-2 to +2): higher = both siRNAs protect from cisplatin killing; -2 means both sensitise; mean protection from cisplatin (shift in death) and protection from cisplatin (shift in death), siRNA C and protection from cisplatin (shift in death), siRNA D: higher = protection from cisplatin killing
- Active means: 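siRNAs harmful alone (LDH or WST-1) get 0; others get +1 for less and -1 for more cisplatin killing; genes are active when the two siRNAs give the same sign, summing to ±2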
- Calls: active = both siRNAs shift cisplatin killing the same way; inactive = no consistent shift, or siRNA harmful alone

no.	gene knocked down	reagent no.	two-siRNA summed score (-2 to +2)	mean protection from cisplatin (shift in death) (%)	protection from cisplatin (shift in death), siRNA C (%)	protection from cisplatin (shift in death), siRNA D (%)
1	LOC388173	1	1	2.8	-13.9	19.5
2	LOC388297	1	1	28.8	16.2	41.4
3	C6orf62	1	0	5.9	10.4	1.4
4	IGFBP5	1	0	3.2	-8	14.4
5	IL3	1	0	-3.9	-11.9	4.1
6	ENPP1	1	0	-1.9	-3.2	-0.6
7	C1orf74	1	0	-2.5	-9	4
8	CLCN2	1	0	3	5.4	0.6
9	RTN4RL1	1	1	15.7	13.9	17.4
10	CYP2C8	1	0	-7.8	-12.7	-2.9
11	MRPL1	1	0	7.8	5.2	10.4
12	TOX3	1	0	2.9	-1.4	7.3
13	CFAP157	1	0	8.9	7.7	10.1
14	BAZ2B	1	-1	-19.4	-4.9	-34
15	ZNF254	1	1	12.3	5.6	19
16	ZNF254	2	1	12.5	8.3	16.7
17	SCG2	1	1	10	10.7	9.2
18	STAR	1	-1	-10.3	-4.9	-15.7
19	LRRN4	1	1	11.1	1.5	20.6
20	POLD1	1	0	-9.6	-27.2	8
21	LOC388957	1	-1	-5.2	-8.1	-2.2
22	PRRT2	1	0	-3.3	2	-8.7
23	LOC391553	1	0	50.4	4.5	96.2
24	ACTL7A	1	1	22.5	29.4	15.5
25	EXOC8	1	0	4.8	-2	11.6
26	LSMEM2	1	0	7.9	8.2	7.5
27	NTN4	1	0	-5.9	3.9	-15.8
28	UGT2A3	1	0	-5.7	-7.9	-3.4
29	PROKR2	1	0	3.8	23.4	-15.8
30	VGLL1	1	0	-2.1	-1.5	-2.6
31	AP3D1	1	0	15.9	-5.2	37.1
32	LOC441198	1	0	14.4	11.4	17.4
33	CSNK1G3	1	1	10.1	23.2	-3.1
34	POU2F1	1	0	-7.6	-7.7	-7.5
35	AZU1	1	1	4.2	18.6	-10.1
36	H2BC5	1	0	3.7	0.3	7.1
37	SIRAL1	1	-1	-10.6	-19	-2.2
38	SPANXC	1	0	-7.9	-13.1	-2.8
39	TUBGCP4	1	0	5.5	1.9	9.2
40	OSBPL8	1	1	13.1	11	15.2
41	HSPA4	1	0	3.4	9	-2.2
42	LOC90925	1	0	2.2	-0.7	5.2
43	LGI3	1	2 (active)	16.3	19.8	12.7

Next part; the last 8 above are carried over.
no.	gene knocked down	reagent no.	two-siRNA summed score (-2 to +2)	mean protection from cisplatin (shift in death) (%)	protection from cisplatin (shift in death), siRNA C (%)	protection from cisplatin (shift in death), siRNA D (%)
36	H2BC5	1	0	3.7	0.3	7.1
37	SIRAL1	1	-1	-10.6	-19	-2.2
38	SPANXC	1	0	-7.9	-13.1	-2.8
39	TUBGCP4	1	0	5.5	1.9	9.2
40	OSBPL8	1	1	13.1	11	15.2
41	HSPA4	1	0	3.4	9	-2.2
42	LOC90925	1	0	2.2	-0.7	5.2
43	LGI3	1	2 (active)	16.3	19.8	12.7
44	OR5B12	1	0	2.5	8.5	-3.4
45	SRC	1	0	-3.7	-2	-5.4
46	ERBB3	1	0	17.7	24.3	11.2
47	LOC390218	1	0	11.8	16.1	7.4
48	PIP5K1C	1	0	6.6	25	-11.8
49	ZNF2	1	1	21.2	22.9	19.4
50	LOC393078 (retired record)	1	0	2.3	3.4	1.1
51	METTL13	1	0	-7.7	11.3	-26.7
52	LOC441050	1	0	6.5	15.7	-2.7
53	RBM26	1	1	10.7	18.8	2.6
54	ARL6IP6	1	0	2.2	1.2	3.1
55	LOC400030	1	0	10.4	14.8	6.1
56	LOC400721	1	0	-1.3	6.1	-8.6
57	HERC2	1	1	8.8	1.8	15.9
58	LINC02906	1	0	5.8	2.8	8.8
59	GUCD1	1	-1	2.7	-18.8	24.1
60	INTS14	1	0	-1	1.4	-3.4
61	LOC440307	1	0	5	10.5	-0.6
62	C1QTNF9B	1	0	16.5	6.5	26.6
63	MIXL1	1	0	10.8	26.2	-4.5
64	KDM8	1	1	5	21.1	-11.1
65	LOC391581	1	0	7.8	8.5	7
66	COPS6	1	0	-3.5	-9.2	2.2
67	BIK	1	1	12.9	24.7	1.1
68	OR4D2	1	1	14.3	14.1	14.6
69	CA15P2	1	0	-3.4	-11.3	4.5
70	LOC441898	1	0	3	3.6	2.4
71	LOC338949	1	0	1.6	9.1	-5.9
72	TNXB	1	0	5.7	10.2	1.3
73	LOC400949	1	0	-5.9	-5.9	-5.8
